This is an account of results in paper PMC7504817 (Molecules, 2020).

[ ]: non-standard residue; d: D form.

A short description of this series: general procedure: peptide synthesis; 2-chlorotrityl chloride resin; HATU/DIEA (cyclization). The conditions noted are these: cyclisation step; for cyclisation yield: on linear precursor.

Turning to “cyclo(F[dP][dF]W) (SMILES O=C1N[C@@H](Cc2ccccc2)C(=O)N2CCC[C@@H]2C(=O)N[C@H](Cc2ccccc2)C(=O)N[C@H]1Cc1c[nH]c2ccccc12)”, the cyclisation yield is recorded as 43%.

In the case of “cyclo(F[dP][dF][dW]) (SMILES O=C1N[C@H](Cc2ccccc2)C(=O)N[C@H](Cc2c[nH]c3ccccc23)C(=O)N[C@@H](Cc2ccccc2)C(=O)N2CCC[C@H]12)”, the cyclisation yield amounted to 48%. “cyclo([dF][dP]FW) (SMILES O=C1N[C@H](Cc2ccccc2)C(=O)N2CCC[C@@H]2C(=O)N[C@@H](Cc2ccccc2)C(=O)N[C@H]1Cc1c[nH]c2ccccc12)” returned a cyclisation yield of 34%. “cyclo([dF][dP]F[dW]) (SMILES O=C1N[C@H](Cc2c[nH]c3ccccc23)C(=O)N[C@H](Cc2ccccc2)C(=O)N2CCC[C@@H]2C(=O)N[C@H]1Cc1ccccc1)” showed a cyclisation yield of 45%. Further, the “final HPLC purity” value (system A, 214 nm) is given as 94%. Also, the “final HPLC purity” value (system B, 230 nm) is listed as 96%. In the case of “cyclo([dF][dP][dF]W) (SMILES O=C1N[C@H](Cc2ccccc2)C(=O)N2CCC[C@@H]2C(=O)N[C@H](Cc2ccccc2)C(=O)N[C@H]1Cc1c[nH]c2ccccc12)”, the cyclisation yield amounted to 50%.
